Measured values from PubChem BioAssay AID1671190 (National Center for Advancing Translational Sciences (NCATS), 2021).
Values joined by “and” are separate entries in the source; they are usually repeats but may differ in a detail not shown here. Equal entries are not always repeated. The campaign covered roughly 580,000 compounds. About 6,100 (1.1%) were called active. About 15% were inconclusive and are not listed. The call rests on the fitted dose curve; in most records, active means well fitted inhibition curve with a large enough effect; inconclusive means small, poorly fitted or top-dose-only effect, or another doubt; inactive means no such curve, though single readings can be large or run the other way. This is a selection; strong and weak results do not stand in their true shares. Where no call is shown, the source filed none.

Protein sequences, listed by entry. Tags and fused reporters are not part of them. Lines headed by an entry give the natural chain unless they say otherwise; changes in a name come on top.
UniProt P18054: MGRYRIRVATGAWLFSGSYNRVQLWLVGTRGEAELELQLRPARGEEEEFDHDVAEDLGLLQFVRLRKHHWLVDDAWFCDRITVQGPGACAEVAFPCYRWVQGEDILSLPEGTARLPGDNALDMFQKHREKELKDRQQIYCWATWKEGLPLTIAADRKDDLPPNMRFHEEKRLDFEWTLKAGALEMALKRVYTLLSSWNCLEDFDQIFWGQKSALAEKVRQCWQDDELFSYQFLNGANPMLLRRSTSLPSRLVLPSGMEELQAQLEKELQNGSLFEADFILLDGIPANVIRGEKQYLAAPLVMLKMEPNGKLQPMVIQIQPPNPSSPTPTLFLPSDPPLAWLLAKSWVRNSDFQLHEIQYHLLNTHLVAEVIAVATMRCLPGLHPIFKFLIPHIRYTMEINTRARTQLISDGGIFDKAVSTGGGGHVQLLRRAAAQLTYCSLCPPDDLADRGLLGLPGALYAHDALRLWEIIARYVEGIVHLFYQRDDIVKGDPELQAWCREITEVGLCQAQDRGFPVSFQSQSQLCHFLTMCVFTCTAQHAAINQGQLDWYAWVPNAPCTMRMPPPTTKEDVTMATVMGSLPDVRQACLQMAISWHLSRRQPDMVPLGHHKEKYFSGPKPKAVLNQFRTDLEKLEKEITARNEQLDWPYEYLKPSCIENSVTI

The compounds below were run against Polyunsaturated fatty acid lipoxygenase ALOX12 (Homo sapiens) (UniProt P18054) (assay: Primary qHTS assay for inhibitors of human arachidonate 12S-lipoxygenase (ALOX12): Round 2). Settings: purified 12hLO, xylenol orange hydroperoxide absorbance; activity change, negative = inhibition: at 0.00344 µM (top of the series).
Summary of the method: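 Purified human 12hLO (150 nM final) in 25 mM Hepes, 0.01% Triton X-100, pH 7.0 was preincubated 15 min at room temperature with compound. Then 40 uM arachidonic acid was added, 30 min. Hydroperoxide was read by Fe-XO absorbance ratio 573/405 nm.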
On the % scale 0 is the no-effect control and ±100 the full control effect; potency means the concentration at half of the fitted maximal effect.

| Structure (SMILES) | Potency | activity change, negative = inhibition |
| --- | --- | --- |
| O=C(O)c1ccc(Nc2ncc3c(n2)-c2ccc(Cl)cc2C(c2c(F)cccc2F)=NC3)cc1 | active: 15.3 µM |  |
| Cc1ccc(S(=O)(=O)NC(=O)NC2CCCCCCC2)cc1 |  | -13.6% |
| COC(=O)[C@H]1[C@H]2C[C@@H]3c4[nH]c5cc(OC)ccc5c4CCN3C[C@H]2C[C@@H](OC(=O)c2cc(OC)c(OC)c(OC)c2)[C@@H]1OC |  | -23.2% |
| O=C(Nc1cccc2ccccc12)O[C@@H]1CO[C@H]2[C@@H]1OC[C@@H]2NC(=S)Nc1ccc(Cl)cc1 | active: 35.5 µM |  |
| COc1cc([C@@H]2c3cc4c(cc3[C@H](O)[C@H]3COC(=O)[C@H]23)OCO4)cc(OC)c1OC |  | -0.418% |
| OC1(c2ccc(Cl)cc2)CCNCC1 |  | -10.3% |
| O=C(Nc1nnc(C2=COCCO2)o1)c1ccc(Cl)cc1 | active: 39.8 µM |  |
| CC[C@H]1CN2CCc3cc(OC)c(OC)cc3[C@@H]2C[C@@H]1C[C@H]1NCCc2cc(OC)c(OC)cc21 |  | -28.9% |
| CC(C)(CO)[C@@H](O)C(=O)NCCCO |  | 20.7% |
| c1csc(CNc2ccnc(-c3ccoc3)n2)c1 | active: 12.6 µM |  |
| CCN(CC)CCNC(=O)c1ccc(NC(C)=O)cc1 |  | -53.3% |
| CC1(CN2CCC(n3c(=O)[nH]c4ccccc43)CC2)OCc2ccccc2-n2cccc21 (stereo not given) |  | 15.8% |
| O=C(O)c1ccc(OCCN2CCCCC2)cc1 |  | 61.8% |
| NC1(c2ccc(-c3nc4ccn5c(=O)[nH]nc5c4cc3-c3ccccc3)cc2)CCC1 |  | 13.2% |
| CCCCCCCCCCCCCCCCCC(=O)O |  | -29.4% |
| CC(=O)OC/C=C(C)/C=C/C=C(C)/C=C/C1=C(C)CCCC1(C)C |  | -13.7% |
| CCOc1cc(NC(C)=O)ccc1C(=O)OC |  | 5.42% |
| COc1ccc(/C(C)=N/NC(=S)Nc2cc(C)ccc2C)cc1 | active: 44.7 µM |  |
| CS(=O)(=O)c1ccc([C@@H](O)[C@@H](CO)NC(=O)C(Cl)Cl)cc1 |  | -24.8% |
| Cc1ccn2c(-c3n[nH]c(=S)n3Cc3ccccc3)c(C)nc2c1 | active: 8.91 µM |  |
| CCCCCCCC/C=C\CCCCCCCC(=O)NCc1ccc(O)c(OC)c1 |  | -4.24% |
| CCn1c(COc2ccc(Cl)cc2)n[nH]c1=S | active: 15.8 µM |  |
| C[C@@H]1CC(=O)NN=C1c1ccc(NN=C(C#N)C#N)cc1 |  | -14.3% and -52.2% |
| O=c1[nH]c(=O)n([C@H]2CCCO2)cc1F |  | -25.8% |
| O=C(/C=C/c1ccc(-c2cccc(Cl)c2)o1)c1cc(Cl)ccc1Cl | active: 17.8 µM |  |

| Structure (SMILES) | Potency | activity change, negative = inhibition |
| --- | --- | --- |
| C#C[C@]1(OC(C)=O)CC[C@H]2[C@@H]3CCC4=C[C@@H](OC(C)=O)CC[C@@H]4[C@H]3CC[C@@]21C |  | -12.1% |
| COC(=O)c1cc(S(N)(=O)=O)ccc1OC |  | 10.1% |
| C#C[C@]1(O)CC[C@H]2[C@@H]3CCC4=CC(=O)CC[C@@H]4[C@H]3CC[C@@]21C |  | 25.8% |
| Nc1cc(C(F)(F)F)ccc1S |  | 13.9% |
| CO[C@@]1(NC(=O)C(C(=O)O)c2ccc(O)cc2)C(=O)N2C(C(=O)O)=C(CSc3nnnn3C)CO[C@@H]21 (stereo not given in full) |  | -2.8% |
| COc1ccc(CN(CCN(C)C)c2ccccn2)cc1 |  | 24% |
| CC[n+]1c(/C=C2\Sc3ccccc3N2C)ccc2cccc(C)c21 | active: 44.7 µM |  |
| Cc1cc(=O)oc2cc(O)ccc12 |  | 22.9% |
| CCc1nc(NCCN2CCOCC2)c2oc3ccccc3c2n1 | active: 14.1 µM |  |
| O=C(O)Cc1ccc2c(c1)C(=O)c1ccccc1CO2 |  | 28.3% |
| Cc1oc(=O)oc1COC(=O)[C@@H]1N2C(=O)[C@@H](NC(=O)[C@H](N)c3ccccc3)[C@H]2SC1(C)C |  | -17.8% |
| Cc1ccc(C(=O)C(=O)O)cc1C |  | -2.09% |
| CCCCCCCC/C=C/C(=O)O |  | -14.3% |
| Cc1ccc(S(=O)(=O)NC(=O)NC2CCCC2)cc1 |  | -44.7% |
| FC(F)(F)c1ccccc1-n1ccnc1 |  | 17.6% |
| NC(=O)CC[C@@H](N)C(=O)O |  | -7.91% |
| CO/N=C(\C(=O)N[C@@H]1C(=O)N2C(C(=O)O)=C(CSc3nc(=O)c(O)nn3C)CS[C@H]12)c1csc(N)n1 |  | 16.7% |
| C[C@]12CCC(=O)C=C1CC[C@@H]1[C@@H]2[C@@H](O)C[C@@]2(C)[C@H]1CC[C@]2(O)C(=O)COC(=O)CCC(=O)O |  | -16.8% |
| CC(C)(C)NC[C@H](O)COc1nsnc1N1CCOCC1 |  | -57.2% |
| NCCCC[C@H](N[C@@H](CCc1ccccc1)C(=O)O)C(=O)N1CCC[C@H]1C(=O)O |  | 16% |
| COC1=C(OC)C(=O)C(CCCCCCCCCCO)=C(C)C1=O |  | 16.5% |
| CC(C)n1c(/C=C/[C@@H](O)C[C@@H](O)CC(=O)O)c(-c2ccc(F)cc2)c2ccccc21 |  | 33.4% |
| CCNC(=O)N1CCN(CCCC(c2ccc(F)cc2)c2ccc(F)cc2)CC1 |  | -13.2% |
| CCCNC(=O)N[C@@H]1CCC[C@@H](C(=O)N(CC)CC)CC(=O)N(C)C1 | active: 39.8 µM |  |
| CC(=O)C1=CCC(c2ccc(C)o2)N(S(=O)(=O)c2ccc(C)cc2)C1 (stereo not given) | active: 10 µM |  |

2 entries picked at random from the list so far:

| Structure (SMILES) | Potency | activity change, negative = inhibition |
| --- | --- | --- |
| CC(C)(C)NC[C@H](O)COc1nsnc1N1CCOCC1 |  | -57.2% |
| OC1(c2ccc(Cl)cc2)CCNCC1 |  | -10.3% |
